Reference: patent US20060286035A1 (CYTOS BIOTECHNOLOGY, published 2006)
Results are given in words; binding and its absence hold for the method and conditions named. Some binding calls cover weakened binding; strength is not graded here. Tags and fused reporters may be left off the sequences shown.

Experiments:
[1] = biological target: T1, T-cadherin (mouse, UniProt Q9WTR5 139-693); assay: FACS expression cloning: BHK cells infected with a C2C12 Sindbis cDNA library, stained with 50 µg/ml Acrp30-FLAG-C; clones identified by RT-PCR and sequencing
T1 construct: whole, on cells; also called adiponectin receptor; pGF-T-cadherin
T1 sequence (looked up): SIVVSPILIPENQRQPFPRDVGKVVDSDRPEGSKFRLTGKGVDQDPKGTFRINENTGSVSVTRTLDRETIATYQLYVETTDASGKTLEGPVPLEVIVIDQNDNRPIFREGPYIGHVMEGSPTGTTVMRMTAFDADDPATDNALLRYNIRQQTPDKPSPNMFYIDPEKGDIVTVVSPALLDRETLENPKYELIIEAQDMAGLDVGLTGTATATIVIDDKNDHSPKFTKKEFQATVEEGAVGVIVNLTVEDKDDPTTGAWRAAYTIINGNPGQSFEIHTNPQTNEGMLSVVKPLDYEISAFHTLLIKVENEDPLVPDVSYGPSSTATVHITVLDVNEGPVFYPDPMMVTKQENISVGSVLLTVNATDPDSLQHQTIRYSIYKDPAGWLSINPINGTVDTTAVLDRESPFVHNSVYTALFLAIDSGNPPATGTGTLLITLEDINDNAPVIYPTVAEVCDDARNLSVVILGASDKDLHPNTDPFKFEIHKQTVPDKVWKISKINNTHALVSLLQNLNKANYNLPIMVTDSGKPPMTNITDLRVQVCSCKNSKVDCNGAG

[2] = biological target: T1, T-cadherin; assay: flow cytometry titration on 293-EBNA cells transfected with pGF-T-cadherin
[3] = biological target: T1, T-cadherin; assay: flow cytometry on transiently transfected 293-EBNA cells, 50 µg/ml bait, anti-FLAG M2 and Cy5 anti-mouse detection
[4] = biological target: T1, T-cadherin; assay: flow cytometry on 293-EBNA cells transfected with pGF-T-cadherin (FIG. 1)

Measured: binding

B1: Acrp30-FLAG-C (ligand)
chain: DADPEDDVTTTEELAPALVPPPKGTCAGWMAGIPGHPGHNGTPGRDGRDGTPGEKGEKGDAGLLGPKGETGDVGVTGAEGPRGFPGTPGRKGEPGEAAYMYRSAFSVGLETRVTVPNVPIRFTKIFYNQQNHYDGSTGKFYCNIPGLYYFSYHITVYMKDVKVSLFKKDKAVLFTYDQYQEKNVDQASGSVLLHLEVGDQVWLQVYGDGDHNGLYADNVNDSTFTGFLLYHDTNSLDDYKDDDDK
notes: The molecular weight used for the Kd is 26546 g/mol (monomer); Three bands on SDS-PAGE from differential glycosylation; also called Adiponectin-bait Acrp30-FLAG-C; adiponectin
binds: all assays above
